Measurements published in PMC10585736.
Results are given in words; binding and its absence hold for the method and conditions named. For part of these data: Binding seen in cells or lysates may run through a third protein. Some binding calls cover weakened binding; strength is not graded here. For part of these data: Tags and fused reporters may be left off the sequences shown.

Protein sequences, listed by entry. Tags and fused reporters are not part of them. Lines headed by an entry give the natural chain unless they say otherwise; changes in a name come on top.
UniProt Q12495: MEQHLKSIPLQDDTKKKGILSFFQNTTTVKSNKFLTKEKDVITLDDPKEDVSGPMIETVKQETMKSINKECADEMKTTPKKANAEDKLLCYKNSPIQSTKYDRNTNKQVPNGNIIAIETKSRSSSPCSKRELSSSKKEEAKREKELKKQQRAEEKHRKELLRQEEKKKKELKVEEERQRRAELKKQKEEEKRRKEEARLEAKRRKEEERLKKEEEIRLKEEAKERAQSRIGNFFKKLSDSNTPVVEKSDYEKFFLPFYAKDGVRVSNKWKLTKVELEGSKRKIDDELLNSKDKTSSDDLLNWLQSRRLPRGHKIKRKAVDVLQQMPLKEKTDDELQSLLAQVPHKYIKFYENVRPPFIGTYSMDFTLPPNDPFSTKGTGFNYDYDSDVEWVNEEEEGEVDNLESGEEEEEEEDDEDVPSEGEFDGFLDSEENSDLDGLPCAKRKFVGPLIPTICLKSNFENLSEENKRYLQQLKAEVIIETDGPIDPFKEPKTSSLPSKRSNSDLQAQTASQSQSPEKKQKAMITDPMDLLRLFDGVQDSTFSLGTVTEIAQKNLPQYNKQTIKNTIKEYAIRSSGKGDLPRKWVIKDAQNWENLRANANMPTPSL
UniProt P15873: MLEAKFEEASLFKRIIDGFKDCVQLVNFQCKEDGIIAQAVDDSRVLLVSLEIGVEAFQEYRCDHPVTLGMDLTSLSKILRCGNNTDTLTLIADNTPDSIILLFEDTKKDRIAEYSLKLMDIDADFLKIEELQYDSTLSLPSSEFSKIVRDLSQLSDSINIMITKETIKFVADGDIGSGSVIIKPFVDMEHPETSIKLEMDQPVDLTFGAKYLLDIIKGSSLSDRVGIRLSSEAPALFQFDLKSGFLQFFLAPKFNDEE

Columns and labels:
[1] = biological target: Cac1p-FLAG (S. cerevisiae) (UniProt Q12495); experiment: co-IP; Cac1p-FLAG and Rrm3p-Myc from low copy plasmids in the POL30-0 and mutant pol30 strains; α-FLAG or α-Myc precipitation from lysate in IP buffer (150 mM NaCl, 50 mM Tris pH 7.5, 2 mM EDTA), washes with 0.2% Triton X100 + 0.01% SDS, elution with FLAG or Myc peptide, blot with α-PCNA
[2] = biological target: T1, Rrm3p-Myc (S. cerevisiae) (UniProt P38766); experiment: as above
T1 sequence: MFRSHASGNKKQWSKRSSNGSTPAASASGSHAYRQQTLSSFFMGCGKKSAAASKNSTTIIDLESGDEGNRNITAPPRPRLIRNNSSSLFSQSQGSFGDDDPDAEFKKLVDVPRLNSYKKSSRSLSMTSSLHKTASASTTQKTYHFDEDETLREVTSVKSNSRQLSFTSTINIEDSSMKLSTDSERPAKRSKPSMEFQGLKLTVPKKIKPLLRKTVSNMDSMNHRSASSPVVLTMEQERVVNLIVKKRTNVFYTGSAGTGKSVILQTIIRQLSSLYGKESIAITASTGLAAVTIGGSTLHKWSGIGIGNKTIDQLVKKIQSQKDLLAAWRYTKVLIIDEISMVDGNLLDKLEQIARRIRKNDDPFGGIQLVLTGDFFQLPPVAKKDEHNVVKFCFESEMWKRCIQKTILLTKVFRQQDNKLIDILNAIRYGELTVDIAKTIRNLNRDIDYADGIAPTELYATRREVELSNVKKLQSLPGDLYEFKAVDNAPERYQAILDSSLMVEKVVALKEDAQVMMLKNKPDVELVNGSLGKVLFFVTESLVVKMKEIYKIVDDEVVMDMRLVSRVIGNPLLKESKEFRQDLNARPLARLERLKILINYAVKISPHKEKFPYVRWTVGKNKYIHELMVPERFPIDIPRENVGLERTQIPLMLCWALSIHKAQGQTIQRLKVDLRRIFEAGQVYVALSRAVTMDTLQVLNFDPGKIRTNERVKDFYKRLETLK

[3] = biological target: T2, Rrm3p, two-hybrid bait (S. cerevisiae) (UniProt P38766); experiment: two-hybrid; Cac1p and Rrm3p as baits, wild type and mutant Pol30p (Gal4AD) as prey; 4 h in 2% galactose/1% raffinose at 30 °C; β-galactosidase (ONPG) in cell extracts as U/mg of protein, plotted as a factor of the wild-type interaction
T2 sequence: T1 sequence

[4] = biological target: Cac1p, two-hybrid bait (S. cerevisiae) (UniProt Q12495); experiment: as above

| Substance | binding [1] | binding [2] | binding [3] | binding [4] |
| --- | --- | --- | --- | --- |
| Pol30p (PCNA), wild type, of the POL30-0 strain (from UniProt P15873 1-258) | binds | binds |  |  |
| pol30-8 mutant Pol30p, two-hybrid prey (from UniProt P15873 1-258) |  |  | binds weakly |  |
| pol30-79 mutant Pol30p, two-hybrid prey (from UniProt P15873 1-258) |  |  | binds |  |

More lines, now with the values ahead:

| binding [1] | binding [2] | binding [3] | binding [4] | Substance |
| --- | --- | --- | --- | --- |
|  |  | binds | binds | Pol30p (PCNA), wild type, two-hybrid prey (pBL240-PCNA-Gal4AD) (from UniProt P15873 1-258) |
|  |  | binds |  | pol30-6 mutant Pol30p, two-hybrid prey (from UniProt P15873 1-258) |
| binds weakly | binds |  |  | pol30-79 mutant Pol30p of the pol30-79 strain (from UniProt P15873 1-258) |
